Record: PubChem BioAssay AID1224826 (NIAID, 2016)
Here is an unselected part of about 17,000 deposited reagents. Of all reagents, about 1,110 (6.6%) were called active. 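Active means lowered or raised reporter signal; replicate intensities are raw and not normalised per plate.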 Reagents against one gene are numbered here. Further read-outs or replicates are left out here.

Screen: 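Genes that change LPS-induced Tnf promoter activity in mouse macrophages when knocked down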 (primary screen)
Cell system: RAW264.7 G9 macrophages from mouse bearing reporters for p65 (GFP) and the Tnf promoter (mCherry)
Knock-down reagent: siRNA pool against mouse genes, 100 nM
Duration: 16 h of LPS stimulation, after 2 days of siRNA transfection
Conditions: bacterial lipopolysaccharide (Salmonella minnesota R595), 10 ng/ml
Detection: 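Nuclear mCherry signal of the Tnf promoter reporter measured by imaging after background removal, scaled to each plate median and turned into robust z-scores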
Direction: Tnf reporter robust z-score: higher = stronger Tnf promoter reporter signal after LPS
Call rule: 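Called active when robust z-score is at most -1.3, matching the median of the Tlr4 knock-down control, or over 3; control wells and wells with under 50 cells never active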
Calls: active = Tnf reporter clearly lowered or raised; inactive = no clear change in Tnf reporter

target,reagent no.,Tnf reporter robust z-score,fewer than 50 cells in well,Outcome
Brat1 (GeneID 231841),1,-0.97,enough cells in well,inactive
Nubp2 (GeneID 26426),1,-0.41,enough cells in well,inactive
Lamtor3 (GeneID 56692),1,,fewer than 50 cells per well; well left out of calls,inactive
Serpinb6a (GeneID 20719),1,1.1,enough cells in well,inactive
Stoml2 (GeneID 66592),1,-0.6,enough cells in well,inactive
Map4k1 (GeneID 26411),1,-0.88,enough cells in well,inactive
Cd96 (GeneID 84544),1,-0.62,enough cells in well,inactive
Hspa13 (GeneID 110920),1,0.05,enough cells in well,inactive
Araf (GeneID 11836),1,-0.86,enough cells in well,inactive
Rnf112 (GeneID 22671),1,0.74,enough cells in well,inactive
Bpifb3 (GeneID 378700),1,-0.31,enough cells in well,inactive
Smc4 (GeneID 70099),1,1.51,enough cells in well,inactive
Ptgr3 (GeneID 225791),1,-0.46,enough cells in well,inactive
Cdh24 (GeneID 239096),1,0.75,enough cells in well,inactive
Abca9 (GeneID 217262),1,0.44,enough cells in well,inactive
Arl6ip6 (GeneID 65103),1,1.18,enough cells in well,inactive
Lmbrd2 (GeneID 320506),1,0.83,enough cells in well,inactive
Vwa7 (GeneID 27762),1,0.54,enough cells in well,inactive
Pdk2 (GeneID 18604),1,-0.68,enough cells in well,inactive
Tead1 (GeneID 21676),1,-0.14,enough cells in well,inactive
Gadd45a (GeneID 13197),1,-0.28,enough cells in well,inactive
Or8b1b (GeneID 258797),1,0.31,enough cells in well,inactive
Trp53i11 (GeneID 277414),1,-0.8,enough cells in well,inactive
Cacna1b (GeneID 12287),1,-0.08,enough cells in well,inactive
Clec2i (GeneID 93675),1,0.05,enough cells in well,inactive
Fam184b (GeneID 58227),1,-0.05,enough cells in well,inactive
Kank3 (GeneID 80880),1,2.97,enough cells in well,inactive
Timm9 (GeneID 30056),1,1.04,enough cells in well,inactive
Zfp65 (GeneID 235907),1,-0.73,enough cells in well,inactive
Fut9 (GeneID 14348),1,-0.8,enough cells in well,inactive
Rxfp3 (GeneID 239336),1,-1.27,enough cells in well,inactive
Ate1 (GeneID 11907),1,0.36,enough cells in well,inactive
Aass (GeneID 30956),1,1.03,enough cells in well,inactive
Sem1 (GeneID 20422),1,1.31,enough cells in well,inactive
Ankrd13b (GeneID 268445),1,-0.23,enough cells in well,inactive
Slc22a19 (GeneID 207151),1,0.07,enough cells in well,inactive
Chmp7 (GeneID 105513),1,-0.4,enough cells in well,inactive
Gpr20 (GeneID 239530),1,-0.61,enough cells in well,inactive
9330175E14Rik (GeneID 320377),1,-0.56,enough cells in well,inactive
9330175E14Rik (GeneID 320377),2,-0.9,enough cells in well,inactive
Gal3st2 (GeneID 381334),1,-1.7,enough cells in well,active
Ppt2 (GeneID 54397),1,-0.62,enough cells in well,inactive
Tph1 (GeneID 21990),1,,fewer than 50 cells per well; well left out of calls,inactive
Tor3a (GeneID 30935),1,-1.18,enough cells in well,inactive
Or5m10b (GeneID 258582),1,0.92,enough cells in well,inactive
Or4k15c (GeneID 258313),1,,fewer than 50 cells per well; well left out of calls,inactive
Sptlc1 (GeneID 268656),1,0,enough cells in well,inactive
Or51q1c (GeneID 259124),1,1.48,enough cells in well,inactive
Wtap (GeneID 60532),1,1.73,enough cells in well,inactive
Tfb2m (GeneID 15278),1,-0.57,enough cells in well,inactive
Hjurp (GeneID 381280),1,-0.9,enough cells in well,inactive
Rassf9 (GeneID 237504),1,1.92,enough cells in well,inactive
Kcnip4 (GeneID 80334),1,0.91,enough cells in well,inactive
Htatip2 (GeneID 53415),1,-0.93,enough cells in well,inactive
Aida (GeneID 108909),1,,fewer than 50 cells per well; well left out of calls,inactive
Crebzf (GeneID 233490),1,0.7,enough cells in well,inactive
Ccdc178 (GeneID 70950),1,,fewer than 50 cells per well; well left out of calls,inactive
Stx19 (GeneID 68159),1,3.87,enough cells in well,active
